# The supplement of paper PMC3334620
# Over roughly 33,000 sequences, “E-score (-0.5 to 0.5)” has its median near -0.016; the highest 2% begin near 0.3. This is one part of the list.
# Biological target: T1, Yer184c (UniProt P39961)
# T1 sequence: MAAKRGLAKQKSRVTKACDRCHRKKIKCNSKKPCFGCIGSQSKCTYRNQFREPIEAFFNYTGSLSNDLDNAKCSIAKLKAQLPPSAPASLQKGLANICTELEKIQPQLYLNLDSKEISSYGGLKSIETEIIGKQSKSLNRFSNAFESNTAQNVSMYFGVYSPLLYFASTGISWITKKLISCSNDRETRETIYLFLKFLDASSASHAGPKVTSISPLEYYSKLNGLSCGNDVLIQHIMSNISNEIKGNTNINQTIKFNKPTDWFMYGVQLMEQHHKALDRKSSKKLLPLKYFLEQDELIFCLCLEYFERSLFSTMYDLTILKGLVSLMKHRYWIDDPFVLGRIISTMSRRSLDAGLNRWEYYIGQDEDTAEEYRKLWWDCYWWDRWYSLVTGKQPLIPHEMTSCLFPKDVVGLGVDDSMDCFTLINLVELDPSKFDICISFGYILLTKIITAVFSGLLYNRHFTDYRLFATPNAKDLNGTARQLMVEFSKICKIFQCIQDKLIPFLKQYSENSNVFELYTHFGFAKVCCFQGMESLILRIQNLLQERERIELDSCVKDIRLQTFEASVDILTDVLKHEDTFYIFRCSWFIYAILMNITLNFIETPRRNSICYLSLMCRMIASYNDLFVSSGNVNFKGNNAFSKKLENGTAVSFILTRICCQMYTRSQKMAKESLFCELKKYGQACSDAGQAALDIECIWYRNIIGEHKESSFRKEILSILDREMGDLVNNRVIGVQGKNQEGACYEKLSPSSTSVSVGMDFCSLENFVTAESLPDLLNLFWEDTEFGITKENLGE
# Test: PBM E-score (8-mer binding enrichment) (E-score (-0.5 to 0.5)); higher = stronger / more preferred TF binding
# Settings: protein concentration: 100 nM; construct: GST-full length
# Summary of the method: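 Masliner-normalised scans of fluorescent anti-GST signal were the basis for scoring. That signal came from GST-tagged yeast transcription factors applied at about 100-200 nM to double-stranded universal all-10-mer Agilent arrays on fresh or once-stripped slides. Each ungapped eight-base word, pooled with its reverse complement, received an E-score from the Universal PBM Analysis Suite.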
row,Sequence,PBM E-score
1,TCGGCTAA,0.313
2,GCTCAGAC,-0.0881
3,AACCCGTT,-0.11
4,ACTCGAGT,0.184
5,CACCCAGC,-0.161
6,CACCACCG,-0.137
7,AGACTGCC,-0.0985
8,ACTAAGCT,0.0231
9,AGAAGCGG,-0.0611
10,AGCCAGTC,-0.153
11,CCGTGGGC,0.165
12,AGTTTGAG,0.0666
13,AGTATGAA,0.136
14,CAGAGGGC,-0.133
15,ACTACAGG,-0.0412
16,ATGACGAA,0.0832
17,CTACCAGC,-0.275
18,ACTCGGAC,0.208
19,CATAGTAG,-0.092
20,CTATGAGC,-0.119
21,AAGTCCCC,-0.18
22,AACCCGGG,0.325

row,Sequence,PBM E-score
1,GAGGGTGA,-0.124
2,TAGCTAGA,0.0272
3,AAGTACGG,0.00519
4,AATGCCGC,0.199
5,CGGCACCG,0.346
6,GAACAACC,0.115
7,CACGACTC,-0.065
8,CAATGCTC,-0.0842
9,ATTGTAAG,-0.113
10,CAAACTTG,0.0441
11,GCAGTCGC,-0.128
12,ATAGGGGA,-0.191
13,GGCCGTGA,0.22
14,ATGAGGCA,-0.215
15,GACGTTGC,0.00411
16,ATATGCGC,-0.0739
17,ATATCATA,0.227
18,AGGTACCC,-0.34
19,CTTATAGC,0.024
20,CATCCAAC,-0.126
21,GATGTCGA,0.128
22,CTAAGCCC,-0.0913

# Copied from the list:
# GAACAACC | PBM E-score: 0.115
# ACTACAGG | PBM E-score: -0.0412
# ACTCGAGT | PBM E-score: 0.184

# Next entries:

row,Sequence,PBM E-score
1,AATATTTC,0.274
2,AGTTTGCG,-0.0989
3,TAGGAGCA,-0.221
4,AAGAATGG,-0.00899
5,CTGCCCTA,-0.129
6,CGATCGTA,0.0612
7,AACTGGCG,-0.0873
8,CTACCTAG,-0.159
9,AAGGTAAT,0.19
10,CGAGGGAC,-0.288
11,ACGGAATC,0.301
12,AAAAGTCG,0.0531
13,GTGATTAA,0.107
14,GATTCTAC,-0.00683
15,TCGAGAGA,-0.0561
16,GCACGACA,-0.119
17,GCAGCCAC,-0.163
18,ATACTCCA,-0.081
19,ACCCTGTG,-0.124
20,CCCGGTTA,0.108
21,CGAACTCA,0.0627
22,AAACCAGT,-0.138

row,Sequence,PBM E-score
1,CGGCCGCA,0.277
2,CAATCTCA,-0.144
3,AACTCCAT,-0.0972
4,GCGGTTCC,0.0822
5,AAACGCGT,0.0256
6,ATGACACA,0.0871
7,CTTCCTCA,-0.13
8,AATTGATA,0.211
9,ATGATCGC,-0.0434
10,CCCCTCTC,-0.322
11,AGCGGGAA,0.104
12,CCTTAACC,-0.185
13,CGGATACA,0.223
14,AATTGACG,-0.0892
15,ACGATTAC,-0.071
16,GATTAGGC,0.0479
17,CATGGCCA,-0.273
18,CCAGAGCA,0.00451
19,AGATCCTG,0.00801
20,CAGTACCA,-0.122
